Results published in PMC8976005.

Molecular target: ATP6V1B
Assay: co-IP; HEK293T cells 24-36 h after transfection, lysed in BLB lysis buffer or IP buffer (0.5% NP-40, 150 mM NaCl, 50 mM Tris-HCl, pH 7.5); anti-FLAG or anti-HA beads overnight at 4 °C; immunoblot

binding: binds
B1: STK11IP (protein, UniProt Q8N1F8 1-1088)
chain: MTTAQRDSLLWKLAGLLRESGDVVLSGCSTLSLLTPTLQQLNHVFELHLGPWGPGQTGFVALPSHPADSPVILQLQFLFDVLQKTLSLKLVHVAGPGPTGPIKIFPFKSLRHLELRGVPLHCLHGLRGIYSQLETLICSRSLQALEELLSACGGDFCSALPWLALLSANFSYNALTALDSSLRLLSALRFLNLSHNQVQDCQGFLMDLCELHHLDISYNRLHLVPRMGPSGAALGVLILRGNELRSLHGLEQLRNLRHLDLAYNLLEGHRELSPLWLLAELRKLYLEGNPLWFHPEHRAATAQYLSPRARDAATGFLLDGKVLSLTDFQTHTSLGLSPMGPPLPWPVGSTPETSGGPDLSDSLSSGGVVTQPLLHKVKSRVRVRRASISEPSDTDPEPRTLNPSPAGWFVQQHPELELMSSFRERFGRNWLQYRSHLEPSGNPLPATPTTSAPSAPPASSQGPDTAPRPSPPQEEARGPQESPQKMSEEVRAEPQEEEEEKEGKEEKEEGEMVEQGEEEAGEEEEEEQDQKEVEAELCRPLLVCPLEGPEGVRGRECFLRVTSAHLFEVELQAARTLERLELQSLEAAEIEPEAQAQRSPRPTGSDLLPGAPILSLRFSYICPDRQLRRYLVLEPDAHAAVQELLAVLTPVTNVAREQLGEARDLLLGRFQCLRCGHEFKPEEPRMGLDSEEGWRPLFQKTESPAVCPNCGSDHVVLLAVSRGTPNRERKQGEQSLAPSPSASPVCHPPGHGDHLDRAKNSPPQAPSTRDHGSWSLSPPPERCGLRSVDHRLRLFLDVEVFSDAQEEFQCCLKVPVALAGHTGEFMCLVVVSDRRLYLLKVTGEMREPPASWLQLTLAVPLQDLSGIELGLAGQSLRLEWAAGAGRCVLLPRDARHCRAFLEELLDVLQSLPPAWRNCVSATEEEVTPQHRLWPLLEKDSSLEARQFFYLRAFLVEGPSTCLVSLLLTPSTLFLLDEDAAGSPAEPSPPAASGEASEKVPPSGPGPAVRVREQQPLSSLSSVLLYRSAPEDLRLLFYDEVSRLESFWALRVVCQEQLTALLAWIREPWEELFSIGLRTVIQEALALDR

binding: binds
B2: S404A-STK11IP (protein, UniProt Q8N1F8 1-1088)
chain: B1 chain with S404A

Changes are numbered by the printed parent chain. Numbers in names are those of the source. Results are given in words; binding and its absence hold for the method and conditions named. Binding seen in cells or lysates may run through a third protein. Binding calls can cover weak binding; strength is not graded here. One block for each binder: values may come before it.
